Test results from publication PMC12583452.
No constants are given. Whether binding was seen depends on the method and setting. Binding seen in cells or lysates may run through a third protein. Some entries that bind do so weakly or less than the wild type. For some of these results: Sequences can lack the tags named with a protein.

The chains behind the UniProt entries cited, without tags or fusion partners.
UniProt O94874: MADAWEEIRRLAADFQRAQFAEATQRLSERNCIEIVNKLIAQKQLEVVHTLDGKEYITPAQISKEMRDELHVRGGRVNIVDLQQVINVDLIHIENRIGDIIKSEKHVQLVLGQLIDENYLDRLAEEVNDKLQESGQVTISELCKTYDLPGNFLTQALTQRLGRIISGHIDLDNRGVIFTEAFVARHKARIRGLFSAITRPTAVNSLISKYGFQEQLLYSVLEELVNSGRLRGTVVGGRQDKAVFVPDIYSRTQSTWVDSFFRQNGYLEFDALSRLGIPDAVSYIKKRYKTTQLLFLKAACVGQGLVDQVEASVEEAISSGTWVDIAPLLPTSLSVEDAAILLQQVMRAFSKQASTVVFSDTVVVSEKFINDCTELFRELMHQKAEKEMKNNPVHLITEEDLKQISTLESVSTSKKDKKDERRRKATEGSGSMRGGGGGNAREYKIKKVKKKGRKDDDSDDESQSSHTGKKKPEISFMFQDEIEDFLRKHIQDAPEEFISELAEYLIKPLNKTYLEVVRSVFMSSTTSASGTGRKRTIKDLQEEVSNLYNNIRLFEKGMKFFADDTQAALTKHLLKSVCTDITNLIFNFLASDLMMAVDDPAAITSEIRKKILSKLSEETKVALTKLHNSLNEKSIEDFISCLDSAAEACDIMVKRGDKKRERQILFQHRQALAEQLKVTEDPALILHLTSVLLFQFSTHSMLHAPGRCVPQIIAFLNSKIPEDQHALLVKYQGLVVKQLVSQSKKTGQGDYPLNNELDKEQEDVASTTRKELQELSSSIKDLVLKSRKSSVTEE

T1: MCM5 (endogenous, HeLa) (human (endogenous in HeLa)) (UniProt P33992)
T1 sequence: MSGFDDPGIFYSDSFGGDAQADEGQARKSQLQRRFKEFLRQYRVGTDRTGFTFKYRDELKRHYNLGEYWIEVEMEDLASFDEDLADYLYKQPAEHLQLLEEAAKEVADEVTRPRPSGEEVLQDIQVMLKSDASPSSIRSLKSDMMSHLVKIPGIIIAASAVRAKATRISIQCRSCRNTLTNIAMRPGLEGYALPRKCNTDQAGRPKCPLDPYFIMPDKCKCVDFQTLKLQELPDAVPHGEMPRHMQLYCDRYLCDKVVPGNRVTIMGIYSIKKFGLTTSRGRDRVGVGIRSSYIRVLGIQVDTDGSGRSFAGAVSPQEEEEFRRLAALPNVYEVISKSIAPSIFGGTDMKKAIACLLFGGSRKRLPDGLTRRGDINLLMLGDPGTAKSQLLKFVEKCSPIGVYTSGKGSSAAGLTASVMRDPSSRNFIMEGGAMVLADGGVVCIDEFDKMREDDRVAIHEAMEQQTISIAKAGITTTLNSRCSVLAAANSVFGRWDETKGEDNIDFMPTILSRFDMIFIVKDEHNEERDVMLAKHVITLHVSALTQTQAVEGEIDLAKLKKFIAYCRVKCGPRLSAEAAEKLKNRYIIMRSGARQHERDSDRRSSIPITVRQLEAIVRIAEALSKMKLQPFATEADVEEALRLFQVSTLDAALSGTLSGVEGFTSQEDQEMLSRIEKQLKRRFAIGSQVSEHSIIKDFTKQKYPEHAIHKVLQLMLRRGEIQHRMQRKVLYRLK

T2: FLAG-MCM5 (WT), expressed in HeLa cells (human) (UniProt P33992)
T2 sequence: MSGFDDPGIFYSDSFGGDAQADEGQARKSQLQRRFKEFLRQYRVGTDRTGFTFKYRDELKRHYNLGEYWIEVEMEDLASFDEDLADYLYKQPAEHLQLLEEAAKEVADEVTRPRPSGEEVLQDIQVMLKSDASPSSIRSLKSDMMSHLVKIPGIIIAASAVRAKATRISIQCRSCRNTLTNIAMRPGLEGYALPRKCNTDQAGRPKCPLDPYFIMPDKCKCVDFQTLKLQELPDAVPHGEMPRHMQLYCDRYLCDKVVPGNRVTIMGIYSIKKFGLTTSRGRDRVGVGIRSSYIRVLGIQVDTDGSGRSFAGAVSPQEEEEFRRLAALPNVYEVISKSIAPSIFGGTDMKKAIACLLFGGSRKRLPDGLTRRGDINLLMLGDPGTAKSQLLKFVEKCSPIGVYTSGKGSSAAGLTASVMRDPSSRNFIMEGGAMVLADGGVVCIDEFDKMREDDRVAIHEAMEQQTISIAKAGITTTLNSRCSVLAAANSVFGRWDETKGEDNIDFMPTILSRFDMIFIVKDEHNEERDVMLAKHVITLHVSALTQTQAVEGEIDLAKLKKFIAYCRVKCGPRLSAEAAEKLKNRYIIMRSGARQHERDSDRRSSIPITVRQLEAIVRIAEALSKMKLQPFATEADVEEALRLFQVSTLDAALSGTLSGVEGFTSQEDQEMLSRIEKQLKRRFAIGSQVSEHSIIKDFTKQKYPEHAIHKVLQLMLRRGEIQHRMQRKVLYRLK

T3: FLAG-MCM5 (K583R), expressed in HeLa cells (human) (UniProt P33992)
T3 sequence: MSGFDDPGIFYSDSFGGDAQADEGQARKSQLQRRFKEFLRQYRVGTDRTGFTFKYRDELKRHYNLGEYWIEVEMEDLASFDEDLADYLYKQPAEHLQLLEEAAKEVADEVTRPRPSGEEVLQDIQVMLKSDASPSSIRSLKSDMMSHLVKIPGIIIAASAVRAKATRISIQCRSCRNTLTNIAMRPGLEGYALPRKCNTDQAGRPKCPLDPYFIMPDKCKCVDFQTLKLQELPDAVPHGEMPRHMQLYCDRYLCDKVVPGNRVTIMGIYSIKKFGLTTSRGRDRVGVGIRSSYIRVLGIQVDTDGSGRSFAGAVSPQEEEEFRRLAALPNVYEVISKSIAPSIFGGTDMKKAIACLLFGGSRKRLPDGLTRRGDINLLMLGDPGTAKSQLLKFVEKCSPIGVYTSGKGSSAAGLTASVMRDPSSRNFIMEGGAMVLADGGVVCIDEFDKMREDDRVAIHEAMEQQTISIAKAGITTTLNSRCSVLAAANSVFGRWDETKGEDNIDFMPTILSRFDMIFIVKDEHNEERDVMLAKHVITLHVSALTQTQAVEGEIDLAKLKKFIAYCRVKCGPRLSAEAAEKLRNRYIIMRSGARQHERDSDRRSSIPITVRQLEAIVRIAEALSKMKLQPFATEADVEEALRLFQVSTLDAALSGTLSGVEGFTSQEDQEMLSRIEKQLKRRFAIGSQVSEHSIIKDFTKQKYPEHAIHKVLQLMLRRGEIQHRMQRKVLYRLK


What was measured:
[1] = molecular target: UFL1 (endogenous, HEK293T) (human (endogenous in HEK293T)) (UniProt O94874); test: co-IP; endogenous; HEK293T cell lysates precipitated with an anti-UFL1 antibody or control IgG, western blot
[2] = molecular target: FLAG-UFL1, expressed in HeLa cells (UniProt O94874); test: proximity ligation; HeLa cells transfected with FLAG-VEC or FLAG-UFL1; PLA of UFL1 with CDC45, GINS3 or MCM5; Duolink In Situ Red kit, fixed cells
[3] = molecular target: T1, MCM5 (endogenous, HeLa) (human (endogenous in HeLa)); test: proximity ligation; endogenous MCM5/GINS3 and MCM5/CDC45 PLA foci in HeLa cells 1 h after release from double-thymidine block; DMSO or DKM 2-93 (100 uM), siNC or siUFL1
[4] = molecular target: T1, MCM5 (endogenous, HeLa) (human (endogenous in HeLa)); test: co-IP; endogenous; chromatin fractions of HeLa cells, anti-MCM5 antibody or IgG; cells treated with DMSO or DKM 2-93 (100 uM), or siNC or siUFL1
[5] = molecular target: T2, FLAG-MCM5 (WT), expressed in HeLa cells (human); test: co-IP; anti-FLAG immunoprecipitates from the chromatin fraction of HeLa cells transfected with FLAG-MCM5 (WT) or (K583R); in one panel cells treated with DKM 2-93 (100 uM, 16 h)
[6] = molecular target: T3, FLAG-MCM5 (K583R), expressed in HeLa cells (human); test: as above
[7] = molecular target: FLAG-UFL1, expressed in HeLa cells (UniProt O94874); test: co-IP; HeLa cells expressing FLAG-UFL1, synchronised with nocodazole and lysed at times after release (association told at 8 h); UFL1 purified on FLAG M2 beads, western blot
[8] = molecular target: T2, FLAG-MCM5 (WT), expressed in HeLa cells (human); test: proximity ligation; HeLa cells transfected with FLAG-VEC, FLAG-MCM5 (WT) or FLAG-MCM5 (K583R), 1 h after release from double-thymidine block; PLA with CDC45

Binder	binding [1]	binding [2]	binding [3]	binding [4]	binding [5]	binding [6]	other results
GINS3 (endogenous, HEK293T) (protein, UniProt Q9BRX5 1-216) MSEAYFRVESGALGPEENFLSLDDILMSHEKLPVRTETAMPRLGAFFLERSAGAETDNAVPQGSKLELPLWLAKGLFDNKRRILSVELPKIYQEGWRTVFSADPNVVDLHKMGPHFYGFGSQLLHFDSPENADISQSLLQTFIGRFRRIMDSSQNAYNEDTSALVARLDEMERGLFQTGQKGLNDFQCWEKGQASQITASNLVQNYKKRKFTDMED	binds						
MCM5 (endogenous, HeLa) (protein, UniProt P33992 1-734) MSGFDDPGIFYSDSFGGDAQADEGQARKSQLQRRFKEFLRQYRVGTDRTGFTFKYRDELKRHYNLGEYWIEVEMEDLASFDEDLADYLYKQPAEHLQLLEEAAKEVADEVTRPRPSGEEVLQDIQVMLKSDASPSSIRSLKSDMMSHLVKIPGIIIAASAVRAKATRISIQCRSCRNTLTNIAMRPGLEGYALPRKCNTDQAGRPKCPLDPYFIMPDKCKCVDFQTLKLQELPDAVPHGEMPRHMQLYCDRYLCDKVVPGNRVTIMGIYSIKKFGLTTSRGRDRVGVGIRSSYIRVLGIQVDTDGSGRSFAGAVSPQEEEEFRRLAALPNVYEVISKSIAPSIFGGTDMKKAIACLLFGGSRKRLPDGLTRRGDINLLMLGDPGTAKSQLLKFVEKCSPIGVYTSGKGSSAAGLTASVMRDPSSRNFIMEGGAMVLADGGVVCIDEFDKMREDDRVAIHEAMEQQTISIAKAGITTTLNSRCSVLAAANSVFGRWDETKGEDNIDFMPTILSRFDMIFIVKDEHNEERDVMLAKHVITLHVSALTQTQAVEGEIDLAKLKKFIAYCRVKCGPRLSAEAAEKLKNRYIIMRSGARQHERDSDRRSSIPITVRQLEAIVRIAEALSKMKLQPFATEADVEEALRLFQVSTLDAALSGTLSGVEGFTSQEDQEMLSRIEKQLKRRFAIGSQVSEHSIIKDFTKQKYPEHAIHKVLQLMLRRGEIQHRMQRKVLYRLK		binds					binding [7]: binds
MCM5 (endogenous, HEK293T) (protein, UniProt P33992 1-734) MSGFDDPGIFYSDSFGGDAQADEGQARKSQLQRRFKEFLRQYRVGTDRTGFTFKYRDELKRHYNLGEYWIEVEMEDLASFDEDLADYLYKQPAEHLQLLEEAAKEVADEVTRPRPSGEEVLQDIQVMLKSDASPSSIRSLKSDMMSHLVKIPGIIIAASAVRAKATRISIQCRSCRNTLTNIAMRPGLEGYALPRKCNTDQAGRPKCPLDPYFIMPDKCKCVDFQTLKLQELPDAVPHGEMPRHMQLYCDRYLCDKVVPGNRVTIMGIYSIKKFGLTTSRGRDRVGVGIRSSYIRVLGIQVDTDGSGRSFAGAVSPQEEEEFRRLAALPNVYEVISKSIAPSIFGGTDMKKAIACLLFGGSRKRLPDGLTRRGDINLLMLGDPGTAKSQLLKFVEKCSPIGVYTSGKGSSAAGLTASVMRDPSSRNFIMEGGAMVLADGGVVCIDEFDKMREDDRVAIHEAMEQQTISIAKAGITTTLNSRCSVLAAANSVFGRWDETKGEDNIDFMPTILSRFDMIFIVKDEHNEERDVMLAKHVITLHVSALTQTQAVEGEIDLAKLKKFIAYCRVKCGPRLSAEAAEKLKNRYIIMRSGARQHERDSDRRSSIPITVRQLEAIVRIAEALSKMKLQPFATEADVEEALRLFQVSTLDAALSGTLSGVEGFTSQEDQEMLSRIEKQLKRRFAIGSQVSEHSIIKDFTKQKYPEHAIHKVLQLMLRRGEIQHRMQRKVLYRLK	binds						

Continued, in another order:

binding [1]	binding [2]	binding [3]	binding [4]	binding [5]	binding [6]	Binder	other results
	binds	binds	binds	binds	binds	GINS3 (endogenous, HeLa) (protein, UniProt Q9BRX5 1-216) MSEAYFRVESGALGPEENFLSLDDILMSHEKLPVRTETAMPRLGAFFLERSAGAETDNAVPQGSKLELPLWLAKGLFDNKRRILSVELPKIYQEGWRTVFSADPNVVDLHKMGPHFYGFGSQLLHFDSPENADISQSLLQTFIGRFRRIMDSSQNAYNEDTSALVARLDEMERGLFQTGQKGLNDFQCWEKGQASQITASNLVQNYKKRKFTDMED	
binds						CDC45 (endogenous, HEK293T) (protein, UniProt O75419 1-566) MFVSDFRKEFYEVVQSQRVLLFVASDVDALCACKILQALFQCDHVQYTLVPVSGWQELETAFLEHKEQFHYFILINCGANVDLLDILQPDEDTIFFVCDTHRPVNVVNVYNDTQIKLLIKQDDDLEVPAYEDIFRDEEEDEEHSGNDSDGSEPSEKRTRLEEEIVEQTMRRRQRREWEARRRDILFDYEQYEYHGTSSAMVMFELAWMLSKDLNDMLWWAIVGLTDQWVQDKITQMKYVTDVGVLQRHVSRHNHRNEDEENTLSVDCTRISFEYDLRLVLYQHWSLHDSLCNTSYTAARFKLWSVHGQKRLQEFLADMGLPLKQVKQKFQAMDISLKENLREMIEESANKFGMKDMRVQTFSIHFGFKHKFLASDVVFATMSLMESPEKDGSGTDHFIQALDSLSRSNLDKLYHGLELAKKQLRATQQTIASCLCTNLVISQGPFLYCSLMEGTPDVMLFSRPASLSLLSKHLLKSFVCSTKNRRCKLLPLVMAAPLSMEHGTVTVVGIPPETDSSDRKNFFGRAFEKAAESTSSRMLHNHFDLSVIELKAEDRSKFLDALISLLS	
	binds	binds	binds	binds	binds	CDC45 (endogenous, HeLa) (protein, UniProt O75419 1-566) MFVSDFRKEFYEVVQSQRVLLFVASDVDALCACKILQALFQCDHVQYTLVPVSGWQELETAFLEHKEQFHYFILINCGANVDLLDILQPDEDTIFFVCDTHRPVNVVNVYNDTQIKLLIKQDDDLEVPAYEDIFRDEEEDEEHSGNDSDGSEPSEKRTRLEEEIVEQTMRRRQRREWEARRRDILFDYEQYEYHGTSSAMVMFELAWMLSKDLNDMLWWAIVGLTDQWVQDKITQMKYVTDVGVLQRHVSRHNHRNEDEENTLSVDCTRISFEYDLRLVLYQHWSLHDSLCNTSYTAARFKLWSVHGQKRLQEFLADMGLPLKQVKQKFQAMDISLKENLREMIEESANKFGMKDMRVQTFSIHFGFKHKFLASDVVFATMSLMESPEKDGSGTDHFIQALDSLSRSNLDKLYHGLELAKKQLRATQQTIASCLCTNLVISQGPFLYCSLMEGTPDVMLFSRPASLSLLSKHLLKSFVCSTKNRRCKLLPLVMAAPLSMEHGTVTVVGIPPETDSSDRKNFFGRAFEKAAESTSSRMLHNHFDLSVIELKAEDRSKFLDALISLLS	binding [8]: binds
